# Data published in US12644045B2, “Fluorescent compounds and application thereof” (The Hong Kong University of Science and Technology, priority 2020, dated 2026).
# Test system: high-fat feeding mice liver tissue
# Test: Ex vivo fatty liver tissue one-photon and two-photon imaging, penetration depth
# Settings: TBSM 4 μM, 1 h
# Method: Ex vivo fatty liver tissue imaging. FIG. 21A Two-photon (λex=880 nm) images of and FIG. 21C one-photon (λex=488 nm) images of high-fat feeding mice liver tissue stained with TBSM (4 μM, 1 h) at different penetration depths. λem=550-650 nm FIG. 21B Reconstructed 3D two-photon images. FIG. 21D Reconstructed 3D one-photon images. Scale bar: 40 μm in FIG. 21A and 20 μm in FIG. 21C. Two photon penetration depth: 72 μm, One photon penetration depth: 15 μm.
# In comparison with luminogens with one-photon excitation, the excitation wavelength of two-photon luminogens can be extended to a deep red region or even near-infrared region, which can successfully overcome the drawbacks of short wavelength excitation. […] Besides, 3D one-photon and two-photon fluorescent images along different visual directions were reconstructed by combining the images at different depth (FIG. 21A, FIG. 21B, FIG. 21C and FIG. 21D). […] One-photon cell imaging experiments were performed by confocal laser scanning microscopy (CLSM).
structure (smiles),measurement,setting,value
N#CC(C#N)=C1Sc2c(F)c(-c3ccc(N(c4ccccc4)c4ccccc4)cc3)c3nsnc3c2S1 [TBSM],One photon penetration depth,λex=488 nm,15 μm
same,Two photon penetration depth,λex=880 nm,72 μm
